Among the data in US20040142357A1 are binding values, retold here.

Protein sequences, listed by entry. Tags and fused reporters are not part of them. Lines headed by an entry give the natural chain unless they say otherwise; changes in a name come on top.
UniProt P54274: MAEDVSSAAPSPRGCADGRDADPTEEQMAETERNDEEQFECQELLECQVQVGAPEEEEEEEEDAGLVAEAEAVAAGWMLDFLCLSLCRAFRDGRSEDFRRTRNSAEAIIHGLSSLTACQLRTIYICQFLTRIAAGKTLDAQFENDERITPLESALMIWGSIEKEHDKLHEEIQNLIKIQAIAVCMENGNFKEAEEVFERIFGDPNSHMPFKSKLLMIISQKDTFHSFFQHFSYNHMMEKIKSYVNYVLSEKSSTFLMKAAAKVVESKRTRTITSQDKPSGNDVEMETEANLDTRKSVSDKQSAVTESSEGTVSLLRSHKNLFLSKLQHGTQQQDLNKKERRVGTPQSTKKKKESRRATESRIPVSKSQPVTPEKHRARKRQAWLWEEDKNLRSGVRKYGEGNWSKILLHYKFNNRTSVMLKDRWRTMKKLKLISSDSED
UniProt P15531: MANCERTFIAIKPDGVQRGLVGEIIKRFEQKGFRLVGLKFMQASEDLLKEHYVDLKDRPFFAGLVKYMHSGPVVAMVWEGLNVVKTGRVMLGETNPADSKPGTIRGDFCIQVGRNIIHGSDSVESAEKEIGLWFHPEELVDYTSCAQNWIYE

Results are given in words; binding and its absence hold for the method and conditions named. For some of these results: In cells and extracts the contact can be indirect. Some results given as binding are weak or reduced against the parent protein; the word gives no strength. For some of these results: Tags and fused reporters may be left off the sequences shown.

In test [1] the target is T1, HA-PinX1 (PinX1 with an N-terminal HA epitope tag) (human) (UniProt Q96BK5).
T1 sequence: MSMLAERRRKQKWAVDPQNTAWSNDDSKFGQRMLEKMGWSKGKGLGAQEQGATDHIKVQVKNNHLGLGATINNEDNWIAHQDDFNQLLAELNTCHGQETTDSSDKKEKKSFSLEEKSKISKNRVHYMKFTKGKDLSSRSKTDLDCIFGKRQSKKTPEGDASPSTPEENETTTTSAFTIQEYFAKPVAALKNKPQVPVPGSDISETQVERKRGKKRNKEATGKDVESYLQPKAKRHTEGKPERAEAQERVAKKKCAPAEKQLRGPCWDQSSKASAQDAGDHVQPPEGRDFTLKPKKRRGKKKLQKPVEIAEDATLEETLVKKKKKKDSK
Kind of test: GST pulldown from cell extracts, immunoblot with 12CA5. For orientation: In western blotting, separated proteins are transferred to a membrane and probed.

The target of test [2] is T1, HA-PinX1 (PinX1 with an N-terminal HA epitope tag) (human). The experiment in a line: GST pulldown from HeLa lysates, immunoblot with anti-HA.
The target of test [3] is T2, GFP-PinX1 (full length PinX1 as a GFP fusion protein) (human) (UniProt Q96BK5).
T2 sequence: T1 sequence
Kind of test: GST pulldown from HeLa lysates, immunoblot with anti-GFP.

Test [4] deals with T3, GFP fusion of the PinX1 C-terminal 142-328 amino acid fragment (human) (UniProt Q96BK5).
T3 sequence: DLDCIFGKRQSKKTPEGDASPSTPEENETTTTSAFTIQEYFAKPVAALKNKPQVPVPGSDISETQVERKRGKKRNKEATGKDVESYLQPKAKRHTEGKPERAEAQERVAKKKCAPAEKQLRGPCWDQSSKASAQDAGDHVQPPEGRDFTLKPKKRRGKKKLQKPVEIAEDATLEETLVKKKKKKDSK
The test is described as above.

Test [5] has as its target T4, GFP fusion of the PinX1 254-328 amino acid fragment (human) (UniProt Q96BK5).
T4 sequence: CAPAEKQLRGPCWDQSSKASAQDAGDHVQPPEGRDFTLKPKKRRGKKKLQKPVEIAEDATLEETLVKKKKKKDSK
Described as above.

In test [6] the target is Pin2 isoform of Pin2/TRF1 fused to the GAL4 DNA-binding domain (pAS2 vector, yeast two-hybrid bait) (human). Kind of test: yeast two-hybrid screen, Pin2 bait against a HeLa cDNA library, His and LacZ screening.

Take GST-Pin2 (from UniProt P54274 2-439): the binding entry in test [1], in test [2], in test [3], in test [4] and in test [5] was “binds” each time.
For the substance “Pin2 isoform clone from the HeLa cDNA library fused to the GAL4 activation domain (pGAD-GH, yeast two-hybrid prey) (from UniProt P54274 2-439)”, the binding result in test [6] is “binds”.
Same read-out and setting: the result for “nm23-H1 clone from the HeLa cDNA library fused to the GAL4 activation domain (yeast two-hybrid prey) (from UniProt P15531 1-152)” reads “binds”.
